Results as given in the odorant receptor screen of Mainland et al. (2015).
“And” between values parts separate entries of the source, which are not always exact repeats. Equal entries are not always repeated. This is one part of the list. Each value is one well over the wells without odorant, computed here; the data are noisy.

These molecules were tested on OR6C65 clone 1459 (assay: odorant receptor activation (CRE luciferase / Renilla) (fold of no-odor wells); higher = more activation). Conditions: 100 µM.

| SMILES | odorant receptor activation |
| --- | --- |
| COC(=O)c1ccccc1 [methyl benzoate] | 0.851 and 1.37 |
| CCCCCOC(C)=O [n-amyl acetate] | 0.636 and 1 |
| C=CCc1ccc(OC(C)=O)c(OC)c1 [eugenol acetate] | 1.62 |
| CC12CCC(CC1)C(C)(C)O2 [cineole] | 0.884 |
| CCCC(=O)O [butyric acid] | 1.67 |
| CCCCCC(C)=O [2-heptanone] | 0.818 and 0.823 |
| CC(C)(C)c1ccc(CCC=O)cc1 [bourgeonal] | 1.16 |
| CC(=O)OC1CC2CCC1(C)C2(C)C (stereo not drawn) [isobornyl acetate] | 0.691 and 1.28 |
| CCCCO [1-butanol] | 1.32 |
| CC(=O)c1ccccc1 [acetophenone] | 0.706 and 0.797 |
| COc1ccccc1O [guaiacol] | 0.938 and 1.06 |
| O=CCc1ccccc1 [phenyl acetaldehyde] | 1.73 |
| CC12C=CCC1C1CCC3CC(=O)CCC3(C)C1CC2 (stereo not drawn) [androstenone] | 1.09 |
| C=C(C)C1CC=C(C)C(=O)C1 (stereo not drawn) [r-carvone] | 0.999 |
| C=C(C)C1CC=CCC1 (stereo not drawn) [r-limonene] | 1.03 and 0.577 |
| COC(=O)c1ccccc1O [methyl salicylate] | 1.09 |
| CCCCCCCCOC(C)=O [octyl acetate] | 0.964 |
| CCC1(O)C2(C)CCC(C2)C1(C)C (stereo not drawn) [2-ethylfenchol] | 1.11 |
| CC(C)=CCCC(C)=CC=O [citral] | 1.34 |
| CC1=NC(C)SC1C (stereo not drawn) | 0.912 and 1.09 |
| CC12C=CCC1C1CCC3=CC(=O)CCC3(C)C1CC2 (stereo not drawn) [androstadienone] | 0.763 and 1.31 |
| O=C1CCCCCCCCCCCC(=O)OCCO1 [ethylene brassylate] | 1.04 |
| CCCCCC(=O)O [caproic acid] | 1.04 |
| O=C1CCCCC1 [Cyclohexanone] | 0.755 and 1.19 |
| CC(C)CC(=O)O [isovaleric acid] | 1 |

What follows are molecules tested on OR6C68 A45T clone 1451 in the same assay as above. Conditions: 100 µM.

| SMILES | odorant receptor activation |
| --- | --- |
| CCCCCOC(C)=O [n-amyl acetate] | 0.845 |
| CC1COCc2cc3c(cc21)C(C)(C)C(C)C3(C)C (stereo not drawn) [galaxolide] | 0.245 and 0.54 |
| C=CCc1ccc(OC(C)=O)c(OC)c1 [eugenol acetate] | 1.88 |
| CC12CCC(CC1)C(C)(C)O2 [cineole] | 1.07 |
| CCCC(=O)O [butyric acid] | 1.13 |
| CC(=O)OC1CC2CCC1(C)C2(C)C (stereo not drawn) [isobornyl acetate] | 1.03 |
| CCCCO [1-butanol] | 0.679 |
| COc1ccccc1O [guaiacol] | 0.861 |
| O=CCc1ccccc1 [phenyl acetaldehyde] | 2.77 |
| C=C(C)C1CCC2=CC(=O)CC(C)C2(C)C1 (stereo not drawn) [amyl laurate] | 0.692 |
| C=C(C)C1CC=C(C)C(=O)C1 (stereo not drawn) [r-carvone] | 1.11 |
| CCCCCCC=O [heptaldehyde] | 1.11 |
| C=C(C)C1CC=CCC1 (stereo not drawn) [r-limonene] | 1.18 |
| COC(=O)c1ccccc1O [methyl salicylate] | 0.801 |
| CCCCCCCCOC(C)=O [octyl acetate] | 1.19 |
| CCC1(O)C2(C)CCC(C2)C1(C)C (stereo not drawn) [2-ethylfenchol] | 0.612 |
| CC(C)=CCCC(C)=CC=O [citral] | 1.86 |
| O=C1CCCCCCCCCCCC(=O)OCCO1 [ethylene brassylate] | 1.67 |
| CCCCCC(=O)O [caproic acid] | 0.966 |
| CC(C)CC(=O)O [isovaleric acid] | 1.21 |
| CC(C)(O)CCCC1=CCC(C=O)CC1 (stereo not drawn) [lyral] | 0.886 |

The molecules below were run on OR6C70 clone 1427 in the same assay as above. Conditions: 100 µM.

| SMILES | odorant receptor activation |
| --- | --- |
| COC(=O)c1ccccc1 [methyl benzoate] | 1.07 |
| CCCCCOC(C)=O [n-amyl acetate] | 1.01 |
| CC1COCc2cc3c(cc21)C(C)(C)C(C)C3(C)C (stereo not drawn) [galaxolide] | 2.45 |
| C=CCc1ccc(OC(C)=O)c(OC)c1 [eugenol acetate] | 1.24 |
| CC12CCC(CC1)C(C)(C)O2 [cineole] | 0.235 |
| CCCC(=O)O [butyric acid] | 0.234 |
| CCCCCC(C)=O [2-heptanone] | 1.03 |
| CC(C)(C)c1ccc(CCC=O)cc1 [bourgeonal] | 0.18 |
| CC(=O)OC1CC2CCC1(C)C2(C)C (stereo not drawn) [isobornyl acetate] | 0.861 |
| CCCCO [1-butanol] | 1.17 |
| CC(=O)c1ccccc1 [acetophenone] | 1.01 |
| COc1ccccc1O [guaiacol] | 0.743 |
| O=CCc1ccccc1 [phenyl acetaldehyde] | 1.61 |
| CC12C=CCC1C1CCC3CC(=O)CCC3(C)C1CC2 (stereo not drawn) [androstenone] | 0.881 |
| C=C(C)C1CC=C(C)C(=O)C1 (stereo not drawn) [r-carvone] | 1.18 |
| CCCCCCC=O [heptaldehyde] | 1.05 and 0.807 |
| C=C(C)C1CC=CCC1 (stereo not drawn) [r-limonene] | 1.45 and 1.15 |
| COC(=O)c1ccccc1O [methyl salicylate] | 1.21 |
| CCCCCCCCOC(C)=O [octyl acetate] | 0.804 |
| CCC1(O)C2(C)CCC(C2)C1(C)C (stereo not drawn) [2-ethylfenchol] | 0.946 |
| CC(C)=CCCC(C)=CC=O [citral] | 0.231 |
| CC1=NC(C)SC1C (stereo not drawn) | 1.26 |
| CC12C=CCC1C1CCC3=CC(=O)CCC3(C)C1CC2 (stereo not drawn) [androstadienone] | 0.911 |
| O=C1CCCCCCCCCCCC(=O)OCCO1 [ethylene brassylate] | 1.2 |
| CCCCCC(=O)O [caproic acid] | 0.214 |
| O=C1CCCCC1 [Cyclohexanone] | 1.36 |
| CC(C)CC(=O)O [isovaleric acid] | 1.1 |
